Here are results for two molecules from article PMC6447414.

The target of assay [1] is T1, special AT-rich sequence-binding protein 2 (Satb2), endogenous in C2C12 (mouse (endogenous in C2C12)) (UniProt Q8VI24).
T1 sequence: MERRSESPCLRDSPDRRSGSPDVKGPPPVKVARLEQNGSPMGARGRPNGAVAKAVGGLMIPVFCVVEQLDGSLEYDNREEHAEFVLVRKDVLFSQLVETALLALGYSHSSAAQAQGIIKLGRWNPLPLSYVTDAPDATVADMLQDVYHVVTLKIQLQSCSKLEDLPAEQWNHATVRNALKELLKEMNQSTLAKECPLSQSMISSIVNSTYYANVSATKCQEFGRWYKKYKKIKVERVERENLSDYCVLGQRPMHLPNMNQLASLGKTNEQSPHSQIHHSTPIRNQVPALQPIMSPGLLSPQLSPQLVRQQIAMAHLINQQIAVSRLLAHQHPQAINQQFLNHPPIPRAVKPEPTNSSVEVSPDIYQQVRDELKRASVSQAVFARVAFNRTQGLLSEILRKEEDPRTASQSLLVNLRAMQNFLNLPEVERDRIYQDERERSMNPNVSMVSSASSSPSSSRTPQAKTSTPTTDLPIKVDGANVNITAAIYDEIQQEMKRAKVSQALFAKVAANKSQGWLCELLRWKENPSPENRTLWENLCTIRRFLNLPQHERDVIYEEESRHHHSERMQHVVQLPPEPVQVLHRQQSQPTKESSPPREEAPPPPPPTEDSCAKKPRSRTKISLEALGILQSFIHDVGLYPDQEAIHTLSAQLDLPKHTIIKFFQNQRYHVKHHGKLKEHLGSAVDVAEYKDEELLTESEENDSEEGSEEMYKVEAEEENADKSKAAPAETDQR
The assay can be described thus: co-IP; untransfected C2C12 cells in HKMG lysis buffer (10 mM HEPES pH 7.9, 100 mM KCl, 5 mM MgCl2, 10% glycerol, 1 mM DTT, 0.5% NP-40); 1 mg of protein with anti-Zfp423, anti-Satb2 or normal IgG on protein G-Dynabeads, 3 h at 4°C; Western blot. On the technique in general: In western blotting, separated proteins are transferred to a membrane and probed.

Assay [2] addresses T2, Satb2, endogenous in Sol8 (mouse (endogenous in Sol8)) (UniProt Q8VI24).
T2 sequence: T1 sequence
As to the kind of experiment: co-IP; Sol8 cells; data not shown.

These are yes or no findings as the source states them, for the method shown. In cells and extracts the contact can be indirect. Some binding calls cover weakened binding; strength is not graded here.

B1: Zfp423, endogenous in C2C12 (protein, UniProt Q80TS5 1-1292)
chain: MSRRKQAKPRSVKVEEGEASDFSLAWDSSVAAAGGLEGEPECDRKTSRALEDRNSVTSQEERNEDDEDVEDESIYTCDHCQQDFESLADLTDHRAHRCPGDGDDDPQLSWVASSPSSKDVASPTQMIGDGCDLGLGEEEGGTGLPYPCQFCDKSFIRLSYLKRHEQIHSDKLPFKCTFCSRLFKHKRSRDRHIKLHTGDKKYHCHECEAAFSRSDHLKIHLKTHSSSKPFKCSVCKRGFSSTSSLQSHMQAHKKNKEHLAKSEKEAKKDDFMCDYCEDTFSQTEELEKHVLTLHPQLSEKADLQCIHCPEVFVDESTLLAHIHQAHANQKHKCPMCPEQFSSVEGVYCHLDSHRQPDSSNHSVSPDPVLGSVASMSSATPDSSASVERGSTPDSTLKPLRGQKKMRDDGQSWPKVVYSCPYCSKRDFTSLAVLEIHLKTIHADKPQQSHTCQICLDSMPTLYNLNEHVRKLHKSHAYPVMQFGNISAFHCNYCPEMFADINSLQEHIRVSHCGPNANPPDGNNAFFCNQCSMGFLTESSLTEHIQQAHCSVGSTKLESPVVQPTQSFMEVYSCPYCTNSPIFGSILKLTKHIKENHKNIPLAHSKKSKAEQSPVSSDVEVSSPKRQRLSGSANSISNGEYPCNQCDLKFSNFESFQTHLKLHLELLLRKQACPQCKEDFDSQESLLQHLTVHYMTTSTHYVCESCDKQFSSVDDLQKHLLDMHTFVLYHCTLCQEVFDSKVSIQVHLAVKHSNEKKMYRCTACNWDFRKEADLQVHVKHSHLGNPAKAHKCIFCGETFSTEVELQCHITTHSKKYNCRFCSKAFHAVILLEKHLREKHCVFDAAAENGTANGVPPTSTKKAEPADLQGMLLKNPEAPNSHEASEDDVDASEPMYGCDICGAAYTMEVLLQNHRLRDHNIRPGEDDGSRKKAEFIKGSHKCNVCSRTFFSENGLREHLQTHRGPAKHYMCPICGERFPSLLTLTEHKVTHSKSLDTGTCRICKMPLQSEEEFIEHCQMHPDLRNSLTGFRCVVCMQTVTSTLELKIHGTFHMQKLAGSSAASSPNGQGLQKLYKCALCLKEFRSKQDLVRLDVNGLPYGLCAGCMARSANGQVGGLAPPEPADRPCAGLRCPECNVKFESAEDLESHMQVDHRDLTPETSGPRKGAQTSPVPRKKTYQCIKCQMTFENEREIQIHVANHMIEEGINHECKLCNQMFDSPAKLLCHLIEHSFEGMGGTFKCPVCFTVFVQANKLQQHIFAVHGQEDKIYDCSQCPQKFFFQTELQNHTMSQHAQ
Consider B1, for which, in assay [1], the binding entry is recorded as “binds”.

B2: Zfp423, endogenous in Sol8 (protein, UniProt Q80TS5 1-1292)
chain: B1 chain
Turning to B2, the binding entry in assay [2] was “binds”.
